The text below walks through data of publication PMC9818470.

Protein sequences, listed by entry. Tags and fused reporters are not part of them. Lines headed by an entry give the natural chain unless they say otherwise; changes in a name come on top.
UniProt Q8N163: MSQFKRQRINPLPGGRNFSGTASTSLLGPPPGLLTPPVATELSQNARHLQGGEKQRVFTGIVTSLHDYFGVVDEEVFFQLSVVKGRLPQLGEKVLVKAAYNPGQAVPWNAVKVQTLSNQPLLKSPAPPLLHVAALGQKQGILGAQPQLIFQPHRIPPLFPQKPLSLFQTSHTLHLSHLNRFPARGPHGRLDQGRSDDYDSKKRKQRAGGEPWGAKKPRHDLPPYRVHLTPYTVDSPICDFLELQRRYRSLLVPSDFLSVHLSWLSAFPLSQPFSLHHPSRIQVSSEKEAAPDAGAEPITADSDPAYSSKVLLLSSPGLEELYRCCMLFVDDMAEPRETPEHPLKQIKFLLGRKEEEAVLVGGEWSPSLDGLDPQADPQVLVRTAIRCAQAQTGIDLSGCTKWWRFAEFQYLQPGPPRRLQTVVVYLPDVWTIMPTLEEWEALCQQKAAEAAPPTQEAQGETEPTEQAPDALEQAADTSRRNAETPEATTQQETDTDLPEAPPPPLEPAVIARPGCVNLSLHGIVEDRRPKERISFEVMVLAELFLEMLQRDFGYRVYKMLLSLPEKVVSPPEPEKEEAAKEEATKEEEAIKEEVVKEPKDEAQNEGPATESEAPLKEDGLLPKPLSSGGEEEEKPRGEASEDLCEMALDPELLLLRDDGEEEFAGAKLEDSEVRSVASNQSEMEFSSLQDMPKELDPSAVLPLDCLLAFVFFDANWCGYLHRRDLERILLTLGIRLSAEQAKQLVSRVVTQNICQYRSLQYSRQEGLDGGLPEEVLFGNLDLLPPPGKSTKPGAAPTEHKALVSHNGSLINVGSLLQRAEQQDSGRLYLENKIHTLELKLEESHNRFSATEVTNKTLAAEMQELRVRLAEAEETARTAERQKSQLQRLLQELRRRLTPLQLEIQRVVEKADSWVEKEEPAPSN
UniProt P54132: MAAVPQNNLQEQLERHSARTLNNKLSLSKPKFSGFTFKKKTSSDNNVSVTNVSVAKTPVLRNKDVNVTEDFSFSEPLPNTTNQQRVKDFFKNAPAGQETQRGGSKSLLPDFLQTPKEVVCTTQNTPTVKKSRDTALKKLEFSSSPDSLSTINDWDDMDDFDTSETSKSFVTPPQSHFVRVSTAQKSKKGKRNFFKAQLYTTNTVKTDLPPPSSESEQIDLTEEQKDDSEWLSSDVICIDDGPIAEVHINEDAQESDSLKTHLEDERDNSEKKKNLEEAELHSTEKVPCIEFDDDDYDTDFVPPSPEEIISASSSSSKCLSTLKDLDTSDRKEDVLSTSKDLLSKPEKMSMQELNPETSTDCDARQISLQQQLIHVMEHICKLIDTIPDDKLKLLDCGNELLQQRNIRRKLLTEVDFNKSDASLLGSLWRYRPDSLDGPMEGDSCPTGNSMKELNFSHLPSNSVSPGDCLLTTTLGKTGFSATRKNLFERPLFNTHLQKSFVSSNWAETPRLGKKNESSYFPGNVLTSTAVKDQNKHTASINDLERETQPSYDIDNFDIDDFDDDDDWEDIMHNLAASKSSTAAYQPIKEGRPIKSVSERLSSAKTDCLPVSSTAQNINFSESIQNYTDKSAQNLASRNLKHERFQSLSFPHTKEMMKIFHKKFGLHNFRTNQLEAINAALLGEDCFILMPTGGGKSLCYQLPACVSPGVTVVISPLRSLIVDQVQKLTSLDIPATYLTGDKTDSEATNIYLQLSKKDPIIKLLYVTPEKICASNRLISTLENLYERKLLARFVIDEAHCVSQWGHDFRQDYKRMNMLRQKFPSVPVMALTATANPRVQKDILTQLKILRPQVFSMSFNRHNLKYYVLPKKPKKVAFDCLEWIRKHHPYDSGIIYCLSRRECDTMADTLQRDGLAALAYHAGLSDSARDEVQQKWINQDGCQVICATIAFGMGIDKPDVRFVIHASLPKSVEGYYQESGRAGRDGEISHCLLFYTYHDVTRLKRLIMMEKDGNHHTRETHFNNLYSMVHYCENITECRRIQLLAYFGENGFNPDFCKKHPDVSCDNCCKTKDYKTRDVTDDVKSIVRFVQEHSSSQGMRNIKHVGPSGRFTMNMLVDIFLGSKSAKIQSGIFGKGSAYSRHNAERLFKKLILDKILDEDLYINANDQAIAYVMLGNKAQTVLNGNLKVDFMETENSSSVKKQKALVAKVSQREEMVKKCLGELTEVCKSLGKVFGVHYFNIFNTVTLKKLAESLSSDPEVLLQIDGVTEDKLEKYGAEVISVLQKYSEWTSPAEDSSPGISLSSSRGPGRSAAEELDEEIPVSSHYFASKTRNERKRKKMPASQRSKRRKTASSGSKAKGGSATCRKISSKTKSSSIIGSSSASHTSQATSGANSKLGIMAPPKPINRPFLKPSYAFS

Results are given in words; binding and its absence hold for the method and conditions named. In cells and extracts the contact can be indirect.

In this test the target is DBC1 ΔNT (UniProt Q8N163). Description: co-IP; co-IP of full-length or truncated DBC1 with BLM from whole cell lysates, Western blot.

On to “BLM (Bloom syndrome protein) (from UniProt P54132 1-1417)”, for which the binding entry was “no binding”.
